Laboratory results taken from the supplement of paper PMC10849652.
The other results are listed elsewhere or left out. Residues, ends and D or L forms follow the SMILES beside them. *: point of attachment. Cbz = O=C(OCc1ccccc1)*

Sequences of proteins named here, by UniProt entry; tags and fusion partners are left off. A change or cut given only in a name is not applied to a line headed by its entry.
UniProt Q9BVA0, whole entry, looked up: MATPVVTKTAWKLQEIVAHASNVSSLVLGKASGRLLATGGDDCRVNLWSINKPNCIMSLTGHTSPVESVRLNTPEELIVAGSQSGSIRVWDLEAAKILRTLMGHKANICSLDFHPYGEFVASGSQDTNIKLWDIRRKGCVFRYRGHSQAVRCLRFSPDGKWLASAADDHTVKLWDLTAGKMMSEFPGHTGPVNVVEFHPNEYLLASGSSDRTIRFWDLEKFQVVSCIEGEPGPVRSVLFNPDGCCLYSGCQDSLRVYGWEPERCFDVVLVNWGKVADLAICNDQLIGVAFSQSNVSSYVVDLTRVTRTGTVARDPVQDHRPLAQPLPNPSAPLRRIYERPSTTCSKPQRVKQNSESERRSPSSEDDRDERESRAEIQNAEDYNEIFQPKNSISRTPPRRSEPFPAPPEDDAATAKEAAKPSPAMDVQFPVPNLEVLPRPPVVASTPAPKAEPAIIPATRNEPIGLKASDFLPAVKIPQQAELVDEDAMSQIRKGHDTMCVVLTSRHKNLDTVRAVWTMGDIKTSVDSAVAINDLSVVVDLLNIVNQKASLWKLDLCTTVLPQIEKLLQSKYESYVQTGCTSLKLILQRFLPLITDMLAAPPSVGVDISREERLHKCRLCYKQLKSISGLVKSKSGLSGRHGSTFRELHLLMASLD
UniProt Q8N371: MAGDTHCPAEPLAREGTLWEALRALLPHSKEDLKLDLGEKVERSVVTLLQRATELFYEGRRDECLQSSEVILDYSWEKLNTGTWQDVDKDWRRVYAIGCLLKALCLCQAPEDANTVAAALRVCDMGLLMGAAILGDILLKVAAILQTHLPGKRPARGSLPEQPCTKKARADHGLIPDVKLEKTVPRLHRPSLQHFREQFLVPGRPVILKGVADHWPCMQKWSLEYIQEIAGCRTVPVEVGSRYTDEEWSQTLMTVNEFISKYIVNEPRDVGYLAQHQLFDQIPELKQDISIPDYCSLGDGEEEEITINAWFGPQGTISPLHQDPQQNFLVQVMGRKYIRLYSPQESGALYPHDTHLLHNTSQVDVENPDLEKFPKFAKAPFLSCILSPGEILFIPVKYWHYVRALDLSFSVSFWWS
UniProt Q9Y597: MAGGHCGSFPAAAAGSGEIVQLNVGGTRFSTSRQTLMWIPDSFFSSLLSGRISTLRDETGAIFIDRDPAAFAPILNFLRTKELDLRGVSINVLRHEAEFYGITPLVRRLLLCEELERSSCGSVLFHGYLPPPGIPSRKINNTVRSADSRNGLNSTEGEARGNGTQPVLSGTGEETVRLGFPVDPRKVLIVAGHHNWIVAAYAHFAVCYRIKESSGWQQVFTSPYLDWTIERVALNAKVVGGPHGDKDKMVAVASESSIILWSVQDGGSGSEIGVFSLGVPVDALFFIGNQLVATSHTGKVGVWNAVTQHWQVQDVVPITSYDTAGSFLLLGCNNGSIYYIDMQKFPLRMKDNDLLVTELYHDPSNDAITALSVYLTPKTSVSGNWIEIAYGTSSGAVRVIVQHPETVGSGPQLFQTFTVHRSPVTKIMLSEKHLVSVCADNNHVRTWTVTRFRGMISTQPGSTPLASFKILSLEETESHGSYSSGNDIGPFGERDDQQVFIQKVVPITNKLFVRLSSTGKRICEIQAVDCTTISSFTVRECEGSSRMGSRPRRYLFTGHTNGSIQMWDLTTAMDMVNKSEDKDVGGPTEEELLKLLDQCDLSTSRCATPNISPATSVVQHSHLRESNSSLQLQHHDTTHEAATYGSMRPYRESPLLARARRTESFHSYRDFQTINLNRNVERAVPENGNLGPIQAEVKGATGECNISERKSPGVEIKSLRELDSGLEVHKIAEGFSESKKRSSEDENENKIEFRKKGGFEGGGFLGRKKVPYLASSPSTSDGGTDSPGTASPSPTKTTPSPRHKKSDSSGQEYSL
UniProt P50053: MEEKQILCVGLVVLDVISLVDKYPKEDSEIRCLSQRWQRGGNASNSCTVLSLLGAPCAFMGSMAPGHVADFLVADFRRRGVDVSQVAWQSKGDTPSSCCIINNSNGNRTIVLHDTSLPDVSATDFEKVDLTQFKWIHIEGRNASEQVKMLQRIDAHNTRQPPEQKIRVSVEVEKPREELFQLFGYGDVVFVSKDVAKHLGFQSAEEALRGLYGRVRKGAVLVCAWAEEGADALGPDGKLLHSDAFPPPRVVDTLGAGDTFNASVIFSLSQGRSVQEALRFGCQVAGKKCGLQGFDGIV
UniProt Q02241: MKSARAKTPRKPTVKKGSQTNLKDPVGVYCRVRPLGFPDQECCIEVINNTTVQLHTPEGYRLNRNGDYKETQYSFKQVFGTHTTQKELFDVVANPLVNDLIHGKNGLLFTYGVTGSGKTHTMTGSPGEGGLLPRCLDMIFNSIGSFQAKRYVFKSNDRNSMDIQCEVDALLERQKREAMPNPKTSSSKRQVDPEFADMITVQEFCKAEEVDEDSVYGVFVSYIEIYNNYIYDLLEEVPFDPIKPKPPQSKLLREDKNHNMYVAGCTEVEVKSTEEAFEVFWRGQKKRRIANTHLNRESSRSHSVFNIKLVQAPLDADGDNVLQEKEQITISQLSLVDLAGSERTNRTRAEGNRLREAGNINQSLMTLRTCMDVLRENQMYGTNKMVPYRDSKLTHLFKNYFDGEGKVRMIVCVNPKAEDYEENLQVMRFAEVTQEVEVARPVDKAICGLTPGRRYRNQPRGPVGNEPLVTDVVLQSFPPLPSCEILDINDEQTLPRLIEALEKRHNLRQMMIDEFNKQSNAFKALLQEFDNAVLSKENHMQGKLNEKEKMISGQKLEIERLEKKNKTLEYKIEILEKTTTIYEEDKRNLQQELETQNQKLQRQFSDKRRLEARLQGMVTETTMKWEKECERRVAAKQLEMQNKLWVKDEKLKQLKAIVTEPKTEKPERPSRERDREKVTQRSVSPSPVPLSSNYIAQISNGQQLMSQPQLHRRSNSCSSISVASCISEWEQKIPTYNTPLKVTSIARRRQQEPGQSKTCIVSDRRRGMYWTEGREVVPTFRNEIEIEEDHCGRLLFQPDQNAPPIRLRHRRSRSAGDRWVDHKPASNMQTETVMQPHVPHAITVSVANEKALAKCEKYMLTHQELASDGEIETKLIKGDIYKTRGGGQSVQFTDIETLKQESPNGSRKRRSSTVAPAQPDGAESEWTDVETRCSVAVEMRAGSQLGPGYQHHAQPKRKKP
UniProt O00505, whole entry, looked up: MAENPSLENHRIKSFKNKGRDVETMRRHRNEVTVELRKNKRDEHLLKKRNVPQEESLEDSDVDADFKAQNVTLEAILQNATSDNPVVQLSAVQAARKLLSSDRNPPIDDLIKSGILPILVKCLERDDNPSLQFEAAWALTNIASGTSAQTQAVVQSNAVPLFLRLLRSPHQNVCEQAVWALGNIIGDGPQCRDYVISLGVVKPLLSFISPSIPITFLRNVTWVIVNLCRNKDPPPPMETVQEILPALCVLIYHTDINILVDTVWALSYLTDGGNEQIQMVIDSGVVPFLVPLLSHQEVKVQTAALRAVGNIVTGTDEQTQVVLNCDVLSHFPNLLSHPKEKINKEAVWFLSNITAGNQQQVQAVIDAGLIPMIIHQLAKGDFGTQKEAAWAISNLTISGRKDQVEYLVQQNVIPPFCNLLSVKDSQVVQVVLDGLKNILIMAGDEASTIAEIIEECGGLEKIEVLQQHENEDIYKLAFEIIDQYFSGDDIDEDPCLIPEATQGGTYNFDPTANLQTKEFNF
UniProt Q8IZA0: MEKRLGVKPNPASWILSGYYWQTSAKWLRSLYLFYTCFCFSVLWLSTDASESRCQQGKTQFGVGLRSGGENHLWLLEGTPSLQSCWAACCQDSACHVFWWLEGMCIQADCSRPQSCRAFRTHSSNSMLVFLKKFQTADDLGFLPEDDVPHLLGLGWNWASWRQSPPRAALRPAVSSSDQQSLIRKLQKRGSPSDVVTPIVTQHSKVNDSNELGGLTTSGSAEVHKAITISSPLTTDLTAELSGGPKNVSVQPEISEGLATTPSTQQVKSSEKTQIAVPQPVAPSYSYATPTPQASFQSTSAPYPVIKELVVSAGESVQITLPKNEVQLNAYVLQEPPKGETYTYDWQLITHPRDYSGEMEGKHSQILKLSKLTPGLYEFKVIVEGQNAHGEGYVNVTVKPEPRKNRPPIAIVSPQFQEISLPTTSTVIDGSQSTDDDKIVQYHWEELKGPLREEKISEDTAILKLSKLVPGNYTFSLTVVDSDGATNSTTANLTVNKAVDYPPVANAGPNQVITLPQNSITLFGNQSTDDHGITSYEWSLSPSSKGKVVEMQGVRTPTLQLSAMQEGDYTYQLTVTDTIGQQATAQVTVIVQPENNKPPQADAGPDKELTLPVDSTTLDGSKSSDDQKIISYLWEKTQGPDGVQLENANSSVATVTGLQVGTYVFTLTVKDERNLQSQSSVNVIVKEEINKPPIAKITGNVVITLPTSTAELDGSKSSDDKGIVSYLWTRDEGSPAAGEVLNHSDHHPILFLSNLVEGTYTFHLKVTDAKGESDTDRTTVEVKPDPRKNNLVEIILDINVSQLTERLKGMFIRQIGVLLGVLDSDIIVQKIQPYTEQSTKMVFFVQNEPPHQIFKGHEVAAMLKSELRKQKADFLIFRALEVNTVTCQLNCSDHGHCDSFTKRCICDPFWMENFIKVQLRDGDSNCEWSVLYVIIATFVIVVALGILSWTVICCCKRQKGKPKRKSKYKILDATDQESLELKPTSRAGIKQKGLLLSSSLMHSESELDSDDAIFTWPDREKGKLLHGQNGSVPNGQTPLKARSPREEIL
UniProt Q9Y448: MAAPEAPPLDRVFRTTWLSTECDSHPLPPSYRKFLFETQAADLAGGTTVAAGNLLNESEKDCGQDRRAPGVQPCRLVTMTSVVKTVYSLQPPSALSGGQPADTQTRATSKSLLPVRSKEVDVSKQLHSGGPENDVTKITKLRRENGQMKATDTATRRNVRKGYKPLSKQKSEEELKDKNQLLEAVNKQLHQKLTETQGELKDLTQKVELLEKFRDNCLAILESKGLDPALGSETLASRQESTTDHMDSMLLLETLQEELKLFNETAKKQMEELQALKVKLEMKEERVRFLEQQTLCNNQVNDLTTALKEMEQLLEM
UniProt Q07866: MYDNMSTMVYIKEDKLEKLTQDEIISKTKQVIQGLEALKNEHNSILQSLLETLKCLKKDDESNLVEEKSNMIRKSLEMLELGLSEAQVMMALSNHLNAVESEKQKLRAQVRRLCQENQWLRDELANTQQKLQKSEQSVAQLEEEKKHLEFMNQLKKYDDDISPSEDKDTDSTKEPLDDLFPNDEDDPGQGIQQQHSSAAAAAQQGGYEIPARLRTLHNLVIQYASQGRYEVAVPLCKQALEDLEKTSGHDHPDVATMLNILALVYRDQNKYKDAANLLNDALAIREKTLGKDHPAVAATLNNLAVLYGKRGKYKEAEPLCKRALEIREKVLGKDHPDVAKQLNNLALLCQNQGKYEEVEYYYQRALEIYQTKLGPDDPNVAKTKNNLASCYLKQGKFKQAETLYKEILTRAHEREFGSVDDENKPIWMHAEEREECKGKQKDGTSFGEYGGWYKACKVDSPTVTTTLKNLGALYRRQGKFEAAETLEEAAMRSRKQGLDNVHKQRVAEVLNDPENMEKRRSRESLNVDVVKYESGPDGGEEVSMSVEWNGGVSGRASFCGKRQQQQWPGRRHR
UniProt P33176: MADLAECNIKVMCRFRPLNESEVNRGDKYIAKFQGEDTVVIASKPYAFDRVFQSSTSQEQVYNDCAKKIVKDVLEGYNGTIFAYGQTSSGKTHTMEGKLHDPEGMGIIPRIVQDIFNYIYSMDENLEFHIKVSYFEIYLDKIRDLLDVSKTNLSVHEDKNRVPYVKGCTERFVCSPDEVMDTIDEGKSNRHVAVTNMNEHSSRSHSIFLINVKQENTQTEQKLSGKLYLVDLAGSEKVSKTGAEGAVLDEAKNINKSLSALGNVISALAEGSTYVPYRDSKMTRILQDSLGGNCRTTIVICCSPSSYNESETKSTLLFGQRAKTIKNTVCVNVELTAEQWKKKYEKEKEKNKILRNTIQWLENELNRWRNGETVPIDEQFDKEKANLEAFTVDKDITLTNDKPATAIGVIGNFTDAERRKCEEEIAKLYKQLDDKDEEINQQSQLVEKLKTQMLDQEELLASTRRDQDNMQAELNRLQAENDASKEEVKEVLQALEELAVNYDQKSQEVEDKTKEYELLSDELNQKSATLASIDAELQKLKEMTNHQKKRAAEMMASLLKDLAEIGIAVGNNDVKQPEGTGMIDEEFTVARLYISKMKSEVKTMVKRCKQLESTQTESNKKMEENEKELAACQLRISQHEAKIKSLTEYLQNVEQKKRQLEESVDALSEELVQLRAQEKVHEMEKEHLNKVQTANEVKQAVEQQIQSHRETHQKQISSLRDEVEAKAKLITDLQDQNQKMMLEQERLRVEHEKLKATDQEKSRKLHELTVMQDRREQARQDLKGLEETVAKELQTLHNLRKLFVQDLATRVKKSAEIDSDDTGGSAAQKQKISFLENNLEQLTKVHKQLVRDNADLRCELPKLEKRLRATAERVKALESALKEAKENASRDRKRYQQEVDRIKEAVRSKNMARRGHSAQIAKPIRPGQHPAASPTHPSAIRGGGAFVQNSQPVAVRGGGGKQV

Compound: CC(C)C[C@@H](C=O)NC(=O)[C@H](CC(C)C)NC(=O)[C@H](CC(C)C)NC(=O)OCc1ccccc1
Experiment: log2 fold change, soluble protein after heating vs DMSO (PISA); higher = thermal stabilisation; K562 cells, 10 uM, 30 min; active = over 0.2 and 3.5 SD of the protein, either way, in both replicates (recomputed)
Method in brief: (§1)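 Quantification of soluble protein used TMTpro 16plex LC-MS/MS, with channel sums equalised. Samples were the supernatant after 21,000xg for 90 min of pooled aliquots from K562 cells (2×10^6 cells/mL) treated with 10 μM compound for 30 min, heated for 3 min over 48°C-58°C, and extracted in PBS with 0.5% NP-40 at 4°C. Values, from duplicates, describe thermal stability against control samples on a log2 fold-change scale.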

| Target | log2 fold change |
| --- | --- |
| KATNB1 (UniProt Q9BVA0) | inactive: 0.065 |
| KMT2D isoform 3 (UniProt O14686) | inactive: -0.058 |
| KCMF1 (UniProt Q9P0J7) | inactive: 0.076 |
| JPT1 (UniProt Q9UK76) | inactive: 0.03 |
| JUND (UniProt P17535) | inactive: 0 |
| JMJD1C (UniProt Q15652) | inactive: -0.008 |
| KDM8 isoform 3 (UniProt Q8N371) | inactive: 0.014 |
| JAGN1 (UniProt Q8N5M9) | inactive: -0.111 |
| KIDINS220 (UniProt Q9ULH0) | inactive: 0 |
| KCTD15 (UniProt Q96SI1) | inactive: -0.062 |
| KCTD3 (UniProt Q9Y597) | inactive: 0.131 |
| KIAA1143 (UniProt Q96AT1) | inactive: 0.043 |
| KHK isoform 2 (UniProt P50053) | inactive: -0.113 |
| KIF23 (UniProt Q02241) | inactive: 0 |
| KIAA1522 isoform 2 (UniProt Q9P206) | inactive: 0.081 |
| KLF3 (UniProt P57682) | inactive: 0.259 |
| KIF2A isoform 4 (UniProt O00139) | inactive: 0.057 |

| Target | log2 fold change |
| --- | --- |
| KIF5A (UniProt Q12840) | inactive: 0.035 |
| IVNS1ABP (UniProt Q9Y6Y0) | inactive: 0.153 |
| KPNA3 (UniProt O00505) | inactive: -0.073 |
| KIAA0319L (UniProt Q8IZA0) | inactive: 0.016 |
| KCNAB2 (UniProt Q13303) | inactive: 0.026 |
| KAZN isoform 3 (UniProt Q674X7) | inactive: -0.027 |
| KNSTRN (UniProt Q9Y448) | inactive: 0.072 |
| KDM5C (UniProt P41229) | inactive: 0.065 |
| KLC1 isoform 6 (UniProt Q07866) | inactive: 0.013 |
| KBTBD2 (UniProt Q8IY47) | inactive: -0.037 |
| KLHL11 (UniProt Q9NVR0) | inactive: -0.018 |
| KDSR (UniProt Q06136) | inactive: -0.036 |
| KIF5B (UniProt P33176) | inactive: -0.021 |
| KIAA0100 (UniProt Q14667) | inactive: 0.038 |
| KHSRP (UniProt Q92945) | inactive: 0.007 |
| KCTD9 (UniProt Q7L273) | inactive: 0.088 |

Compound: CC(C)N(C[C@H]1O[C@@H](n2cnc3c(N)ncnc32)[C@H](O)[C@@H]1O)[C@H]1C[C@@H](CCc2nc3cc(C(C)(C)C)ccc3[nH]2)C1 [pinometostat]
Experiment: as above
Method in brief: as §1

| Target | log2 fold change |
| --- | --- |
| KATNB1 (UniProt Q9BVA0) | inactive: 0.135 |
| KMT2D isoform 3 (UniProt O14686) | inactive: 0.091 |
| KCMF1 (UniProt Q9P0J7) | inactive: 0.075 |
| JPT1 (UniProt Q9UK76) | inactive: -0.055 |
| JUND (UniProt P17535) | inactive: -0.016 |
| JMJD1C (UniProt Q15652) | inactive: -0.007 |
| KDM8 isoform 3 (UniProt Q8N371) | inactive: 0.046 |
| JAGN1 (UniProt Q8N5M9) | inactive: -0.052 |
| KIDINS220 (UniProt Q9ULH0) | inactive: 0.008 |
| KCTD15 (UniProt Q96SI1) | inactive: -0.001 |
| KCTD3 (UniProt Q9Y597) | inactive: 0.023 |
| KIAA1143 (UniProt Q96AT1) | inactive: 0.009 |
| KHK isoform 2 (UniProt P50053) | inactive: 0.025 |
| KIF23 (UniProt Q02241) | inactive: 0 |
| KIAA1522 isoform 2 (UniProt Q9P206) | inactive: 0.086 |
| KLF3 (UniProt P57682) | inactive: 0.004 |
| KIF2A isoform 4 (UniProt O00139) | inactive: 0.221 |

| Target | log2 fold change |
| --- | --- |
| KIF5A (UniProt Q12840) | inactive: -0.003 |
| IVNS1ABP (UniProt Q9Y6Y0) | inactive: 0.097 |
| KPNA3 (UniProt O00505) | inactive: -0.039 |
| KIAA0319L (UniProt Q8IZA0) | inactive: -0.012 |
| KCNAB2 (UniProt Q13303) | inactive: -0.031 |
| KAZN isoform 3 (UniProt Q674X7) | inactive: -0.05 |
| KNSTRN (UniProt Q9Y448) | inactive: 0.116 |
| KDM5C (UniProt P41229) | inactive: -0.051 |
| KLC1 isoform 6 (UniProt Q07866) | inactive: 0.004 |
| KBTBD2 (UniProt Q8IY47) | inactive: -0.001 |
| KLHL11 (UniProt Q9NVR0) | inactive: 0.078 |
| KDSR (UniProt Q06136) | inactive: -0.045 |
| KIF5B (UniProt P33176) | inactive: -0.022 |
| KIAA0100 (UniProt Q14667) | inactive: 0.023 |
| KHSRP (UniProt Q92945) | inactive: -0.043 |
| KCTD9 (UniProt Q7L273) | inactive: -0.085 |

Compound: CC1=C(C(CC(=O)N1)C2=CC=C(C=C2)C(F)(F)F)C(=O)NC3=C(C=C4C(=C3)C=NN4)F
Experiment: as above
Method in brief: as §1

| Target | log2 fold change |
| --- | --- |
| KATNB1 (UniProt Q9BVA0) | inactive: -0.038 |
| KMT2D isoform 3 (UniProt O14686) | inactive: 0.009 |
| KCMF1 (UniProt Q9P0J7) | inactive: 0.055 |
| JPT1 (UniProt Q9UK76) | inactive: 0.037 |
| JUND (UniProt P17535) | inactive: 0.039 |
| JMJD1C (UniProt Q15652) | inactive: -0.099 |
| KDM8 isoform 3 (UniProt Q8N371) | inactive: -0.003 |
| JAGN1 (UniProt Q8N5M9) | inactive: -0.004 |
| KIDINS220 (UniProt Q9ULH0) | inactive: -0.03 |
| KCTD15 (UniProt Q96SI1) | inactive: 0 |
| KCTD3 (UniProt Q9Y597) | inactive: 0.012 |
| KIAA1143 (UniProt Q96AT1) | inactive: 0.011 |
| KHK isoform 2 (UniProt P50053) | inactive: -0.014 |
| KIF23 (UniProt Q02241) | inactive: -0.094 |
| KIAA1522 isoform 2 (UniProt Q9P206) | inactive: 0.074 |
| KLF3 (UniProt P57682) | inactive: -0.143 |
| KIF2A isoform 4 (UniProt O00139) | inactive: 0.004 |

| Target | log2 fold change |
| --- | --- |
| KIF5A (UniProt Q12840) | inactive: -0.031 |
| IVNS1ABP (UniProt Q9Y6Y0) | inactive: 0.042 |
| KPNA3 (UniProt O00505) | inactive: -0.003 |
| KIAA0319L (UniProt Q8IZA0) | inactive: -0.016 |
| KCNAB2 (UniProt Q13303) | inactive: -0.024 |
| KAZN isoform 3 (UniProt Q674X7) | inactive: 0.029 |
| KNSTRN (UniProt Q9Y448) | inactive: 0.044 |
| KDM5C (UniProt P41229) | inactive: -0.054 |
| KLC1 isoform 6 (UniProt Q07866) | inactive: 0.007 |
| KBTBD2 (UniProt Q8IY47) | inactive: 0.005 |
| KLHL11 (UniProt Q9NVR0) | inactive: 0.099 |
| KDSR (UniProt Q06136) | inactive: 0.028 |
| KIF5B (UniProt P33176) | inactive: 0 |
| KIAA0100 (UniProt Q14667) | inactive: -0.044 |
| KHSRP (UniProt Q92945) | inactive: 0.04 |
| KCTD9 (UniProt Q7L273) | inactive: -0.119 |
